Assay [1] concerns the target T1, glutathione S-transferase-KlGal1 fusion protein Gst-KlGal1p (Kluyveromyces lactis) (UniProt P09608).
T1 sequence: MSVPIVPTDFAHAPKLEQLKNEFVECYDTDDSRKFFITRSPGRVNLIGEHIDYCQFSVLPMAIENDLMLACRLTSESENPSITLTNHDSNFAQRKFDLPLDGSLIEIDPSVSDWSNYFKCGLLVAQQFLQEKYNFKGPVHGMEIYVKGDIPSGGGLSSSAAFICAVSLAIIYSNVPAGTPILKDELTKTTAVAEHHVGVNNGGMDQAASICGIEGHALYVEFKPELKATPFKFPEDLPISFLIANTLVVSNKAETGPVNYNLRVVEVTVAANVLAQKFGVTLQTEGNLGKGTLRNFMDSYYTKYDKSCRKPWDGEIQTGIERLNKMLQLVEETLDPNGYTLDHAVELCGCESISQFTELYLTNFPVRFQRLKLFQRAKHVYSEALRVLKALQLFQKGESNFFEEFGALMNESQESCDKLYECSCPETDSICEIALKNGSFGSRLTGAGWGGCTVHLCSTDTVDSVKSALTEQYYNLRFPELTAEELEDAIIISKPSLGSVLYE
In words: pull-down; Fig 6C: 1,500 μg raw extract containing GST-Gal1p immobilized on a GST-column for 1 h 30 min, 20 μg of purified Gal80p added for 1 h 30 min, four washes, elution with 40 mM GSH, Coomassie-stained SDS gel; only the binder purified.

Assay [2] addresses T1, glutathione S-transferase-KlGal1 fusion protein Gst-KlGal1p (Kluyveromyces lactis). The assay is described as follows: pull-down; data not shown: GST pull-down with Gst-KlGal1p as bait, repeated with the other tag form of KlGal80p (untagged or His6-tagged).

Binding data for two molecules are collected here from PMC7556753, “A double role of the Gal80 N terminus in activation of transcription by Gal4p” (Life Science Alliance, 2020).

Results are given in words; binding and its absence hold for the method and conditions named. Binding seen in cells or lysates may run through a third protein. Some entries that bind do so weakly or less than the wild type. Sequences can lack the tags named with a protein.

B1: KlGal80p with internal His6-tag (IHKlGal80p) (protein, UniProt Q06433 1-457)
chain: MNNNKRSKLSTVPSSRPIRVGFVGLTSGKSWVAKTHFLAIQQLSSQFQIVALYNPTLKSSLQTIEQLQLKHATGFDSLESFAQYKDIDMIVVSVKVPEHYEVVKNILEHSSQNLNLRYLYVEWALAASVQQAEELYSISQQRANLQTIICLQGRKSPYIVRAKELISEGCIGDINSIEISGNGGWYGYERPMRSPEYLYDIESGVNLISNSFGHTIDVLQYITGSYFQKINAMISNNIPTQFLLDENGKRTKETISKTCPDHLLFQGILENGKVPVSCSFKGGTPVKKLTKNLVIDIHGTKGDLKIEGDAGFVEISNLVLYFYGIKNGNGSSNGTDNNGAAAIKDKEKVTKSPSPSTGTSEEEQTMEVFHLRNYNSVVGNILRIYESIADYHFLGKPESKSSRGPDDLFASTKFDKQGFRFEGFPTFKDAIILHRLIDAVFRSDKEEKTLDVSKIMI
Consider B1, for which, in assay [1], the binding result is “binds”.

B2: untagged wild-type KlGal80p (protein, UniProt Q06433 1-457)
chain: B1 chain
As for B2, in assay [2], the binding entry is “binds”.
